Results reported in patent publication US11185524B2 (Novus International, Inc., priority 2019, dated 2021).

Details: steers; approximately 43 g of active daily, top dressed on TMR d 7-14

**Q.** What does the source list for `CSCCC(O)C(=O)O` (centres unmarked) [MHA, Methionine hydroxy analog]?
**A.** Body weight: 503.3 kg; Feed Intake: 11.4 kg as-fed
